This is one part of the list.
Assays:
Experiment in all cases: log2 fold change, soluble protein after heating vs DMSO (PISA); higher = thermal stabilisation; K562 lysate, 10 uM; active = over 0.2 and 3.5 SD of the protein, either way, in both replicates (recomputed)
[1] = compound: CCn1c(C(=O)N(C2CC2)C2CC2)cc2c3c(ncn3C)c(Nc3cc(C)n(C)n3)nc21
Outline: (§1)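 K562 pellets were dounce-homogenised in PBS pH 7.4 containing 1 mM MgCl2, and the crude extract, at 1 mg/mL protein, was exposed to 10 μM compound for 30 min. Aliquots were heated for 3 min across 48°C-58°C, pooled, brought to 0.5% NP-40 at 4°C and spun at 21,000xg for 90 min, with the supernatant taken as soluble protein. TMTpro 16plex LC-MS/MS with equalised channel sums quantified that protein. Values are log-two fold changes in thermal stability relative to solvent controls, taken from duplicates.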

Sequences of proteins named here, by UniProt entry; tags and fusion partners are left off. A change or cut given only in a name is not applied to a line headed by its entry.
UniProt Q03405, whole entry, looked up: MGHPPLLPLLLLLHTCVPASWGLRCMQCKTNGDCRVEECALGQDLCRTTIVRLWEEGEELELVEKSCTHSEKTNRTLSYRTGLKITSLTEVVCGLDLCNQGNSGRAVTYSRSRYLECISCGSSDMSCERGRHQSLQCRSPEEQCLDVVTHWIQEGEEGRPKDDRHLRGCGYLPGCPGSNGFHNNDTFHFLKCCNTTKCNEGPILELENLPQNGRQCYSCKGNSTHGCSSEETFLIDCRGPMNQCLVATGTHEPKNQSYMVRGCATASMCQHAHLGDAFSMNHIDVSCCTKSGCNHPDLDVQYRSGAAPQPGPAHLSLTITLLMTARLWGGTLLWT
UniProt Q9H7P9: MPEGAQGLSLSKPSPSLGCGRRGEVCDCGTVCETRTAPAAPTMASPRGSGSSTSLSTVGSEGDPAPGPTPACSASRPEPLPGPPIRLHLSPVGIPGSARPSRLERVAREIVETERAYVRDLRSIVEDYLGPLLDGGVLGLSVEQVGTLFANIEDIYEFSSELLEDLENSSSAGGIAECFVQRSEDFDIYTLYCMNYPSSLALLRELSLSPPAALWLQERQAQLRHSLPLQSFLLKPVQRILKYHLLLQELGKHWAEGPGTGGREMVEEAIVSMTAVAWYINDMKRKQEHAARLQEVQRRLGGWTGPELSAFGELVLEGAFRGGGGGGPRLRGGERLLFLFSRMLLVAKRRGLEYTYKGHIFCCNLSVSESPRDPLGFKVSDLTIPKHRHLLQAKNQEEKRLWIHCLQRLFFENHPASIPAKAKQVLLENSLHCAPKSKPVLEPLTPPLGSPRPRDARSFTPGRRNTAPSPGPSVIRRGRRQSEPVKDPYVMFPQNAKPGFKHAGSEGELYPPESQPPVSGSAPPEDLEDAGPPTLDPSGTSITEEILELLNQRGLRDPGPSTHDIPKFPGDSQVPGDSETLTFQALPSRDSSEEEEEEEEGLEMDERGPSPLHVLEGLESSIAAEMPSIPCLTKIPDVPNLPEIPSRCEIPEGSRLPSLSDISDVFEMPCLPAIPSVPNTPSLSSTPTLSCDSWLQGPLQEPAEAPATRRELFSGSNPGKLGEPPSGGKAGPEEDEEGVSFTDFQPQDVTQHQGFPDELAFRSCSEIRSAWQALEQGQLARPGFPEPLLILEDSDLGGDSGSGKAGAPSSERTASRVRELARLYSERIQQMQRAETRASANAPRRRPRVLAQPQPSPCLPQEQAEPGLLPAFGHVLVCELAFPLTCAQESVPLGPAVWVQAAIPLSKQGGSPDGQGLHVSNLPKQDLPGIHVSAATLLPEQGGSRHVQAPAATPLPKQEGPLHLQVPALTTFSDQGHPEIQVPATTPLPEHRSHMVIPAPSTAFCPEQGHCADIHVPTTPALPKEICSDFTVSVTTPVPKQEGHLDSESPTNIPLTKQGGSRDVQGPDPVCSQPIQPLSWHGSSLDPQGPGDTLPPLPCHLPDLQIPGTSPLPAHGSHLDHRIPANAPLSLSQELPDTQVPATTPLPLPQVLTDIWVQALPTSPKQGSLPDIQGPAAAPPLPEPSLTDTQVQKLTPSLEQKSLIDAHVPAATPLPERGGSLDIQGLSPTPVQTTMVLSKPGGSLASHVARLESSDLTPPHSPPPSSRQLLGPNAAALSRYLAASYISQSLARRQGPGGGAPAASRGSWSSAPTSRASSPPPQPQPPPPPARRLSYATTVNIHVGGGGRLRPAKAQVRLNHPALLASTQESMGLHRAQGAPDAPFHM
UniProt Q9P1W9: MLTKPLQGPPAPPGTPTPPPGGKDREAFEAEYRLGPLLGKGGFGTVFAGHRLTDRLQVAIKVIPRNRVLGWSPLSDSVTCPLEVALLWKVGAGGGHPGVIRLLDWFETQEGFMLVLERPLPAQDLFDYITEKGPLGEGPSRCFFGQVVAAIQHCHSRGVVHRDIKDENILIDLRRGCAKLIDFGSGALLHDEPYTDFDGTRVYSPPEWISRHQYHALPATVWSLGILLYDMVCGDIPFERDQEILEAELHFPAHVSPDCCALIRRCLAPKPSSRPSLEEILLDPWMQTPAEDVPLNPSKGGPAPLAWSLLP
UniProt Q96JA3: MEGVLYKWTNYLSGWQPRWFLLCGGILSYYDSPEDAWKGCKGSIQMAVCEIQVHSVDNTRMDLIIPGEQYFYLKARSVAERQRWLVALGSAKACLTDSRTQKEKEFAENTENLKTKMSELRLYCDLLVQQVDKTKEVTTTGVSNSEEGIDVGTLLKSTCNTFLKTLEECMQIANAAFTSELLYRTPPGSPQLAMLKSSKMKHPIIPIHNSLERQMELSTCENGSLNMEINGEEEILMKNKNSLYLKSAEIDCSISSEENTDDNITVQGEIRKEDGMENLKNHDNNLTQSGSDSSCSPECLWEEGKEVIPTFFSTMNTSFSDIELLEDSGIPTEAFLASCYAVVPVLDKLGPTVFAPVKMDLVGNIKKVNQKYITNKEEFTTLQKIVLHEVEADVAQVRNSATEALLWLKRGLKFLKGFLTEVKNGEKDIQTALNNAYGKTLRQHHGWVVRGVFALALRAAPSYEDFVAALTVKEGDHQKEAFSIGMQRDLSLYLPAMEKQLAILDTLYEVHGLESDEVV
UniProt O14986: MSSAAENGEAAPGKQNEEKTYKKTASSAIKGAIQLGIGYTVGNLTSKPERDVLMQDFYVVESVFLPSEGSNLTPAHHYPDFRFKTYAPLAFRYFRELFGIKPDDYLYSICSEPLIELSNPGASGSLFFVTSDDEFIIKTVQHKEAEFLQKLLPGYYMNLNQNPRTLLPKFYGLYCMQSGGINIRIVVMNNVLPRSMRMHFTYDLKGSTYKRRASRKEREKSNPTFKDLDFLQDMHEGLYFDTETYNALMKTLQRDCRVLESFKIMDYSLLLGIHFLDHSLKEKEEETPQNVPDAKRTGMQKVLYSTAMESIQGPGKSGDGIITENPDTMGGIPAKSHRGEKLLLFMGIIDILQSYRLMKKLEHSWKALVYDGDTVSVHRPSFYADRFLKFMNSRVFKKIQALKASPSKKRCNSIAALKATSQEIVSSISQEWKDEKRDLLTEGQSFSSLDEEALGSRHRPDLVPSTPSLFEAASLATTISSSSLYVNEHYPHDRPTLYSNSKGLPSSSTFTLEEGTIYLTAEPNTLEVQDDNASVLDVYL
UniProt Q9C010: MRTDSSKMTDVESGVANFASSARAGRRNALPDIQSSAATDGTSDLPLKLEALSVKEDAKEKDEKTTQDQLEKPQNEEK
UniProt Q9H5I5: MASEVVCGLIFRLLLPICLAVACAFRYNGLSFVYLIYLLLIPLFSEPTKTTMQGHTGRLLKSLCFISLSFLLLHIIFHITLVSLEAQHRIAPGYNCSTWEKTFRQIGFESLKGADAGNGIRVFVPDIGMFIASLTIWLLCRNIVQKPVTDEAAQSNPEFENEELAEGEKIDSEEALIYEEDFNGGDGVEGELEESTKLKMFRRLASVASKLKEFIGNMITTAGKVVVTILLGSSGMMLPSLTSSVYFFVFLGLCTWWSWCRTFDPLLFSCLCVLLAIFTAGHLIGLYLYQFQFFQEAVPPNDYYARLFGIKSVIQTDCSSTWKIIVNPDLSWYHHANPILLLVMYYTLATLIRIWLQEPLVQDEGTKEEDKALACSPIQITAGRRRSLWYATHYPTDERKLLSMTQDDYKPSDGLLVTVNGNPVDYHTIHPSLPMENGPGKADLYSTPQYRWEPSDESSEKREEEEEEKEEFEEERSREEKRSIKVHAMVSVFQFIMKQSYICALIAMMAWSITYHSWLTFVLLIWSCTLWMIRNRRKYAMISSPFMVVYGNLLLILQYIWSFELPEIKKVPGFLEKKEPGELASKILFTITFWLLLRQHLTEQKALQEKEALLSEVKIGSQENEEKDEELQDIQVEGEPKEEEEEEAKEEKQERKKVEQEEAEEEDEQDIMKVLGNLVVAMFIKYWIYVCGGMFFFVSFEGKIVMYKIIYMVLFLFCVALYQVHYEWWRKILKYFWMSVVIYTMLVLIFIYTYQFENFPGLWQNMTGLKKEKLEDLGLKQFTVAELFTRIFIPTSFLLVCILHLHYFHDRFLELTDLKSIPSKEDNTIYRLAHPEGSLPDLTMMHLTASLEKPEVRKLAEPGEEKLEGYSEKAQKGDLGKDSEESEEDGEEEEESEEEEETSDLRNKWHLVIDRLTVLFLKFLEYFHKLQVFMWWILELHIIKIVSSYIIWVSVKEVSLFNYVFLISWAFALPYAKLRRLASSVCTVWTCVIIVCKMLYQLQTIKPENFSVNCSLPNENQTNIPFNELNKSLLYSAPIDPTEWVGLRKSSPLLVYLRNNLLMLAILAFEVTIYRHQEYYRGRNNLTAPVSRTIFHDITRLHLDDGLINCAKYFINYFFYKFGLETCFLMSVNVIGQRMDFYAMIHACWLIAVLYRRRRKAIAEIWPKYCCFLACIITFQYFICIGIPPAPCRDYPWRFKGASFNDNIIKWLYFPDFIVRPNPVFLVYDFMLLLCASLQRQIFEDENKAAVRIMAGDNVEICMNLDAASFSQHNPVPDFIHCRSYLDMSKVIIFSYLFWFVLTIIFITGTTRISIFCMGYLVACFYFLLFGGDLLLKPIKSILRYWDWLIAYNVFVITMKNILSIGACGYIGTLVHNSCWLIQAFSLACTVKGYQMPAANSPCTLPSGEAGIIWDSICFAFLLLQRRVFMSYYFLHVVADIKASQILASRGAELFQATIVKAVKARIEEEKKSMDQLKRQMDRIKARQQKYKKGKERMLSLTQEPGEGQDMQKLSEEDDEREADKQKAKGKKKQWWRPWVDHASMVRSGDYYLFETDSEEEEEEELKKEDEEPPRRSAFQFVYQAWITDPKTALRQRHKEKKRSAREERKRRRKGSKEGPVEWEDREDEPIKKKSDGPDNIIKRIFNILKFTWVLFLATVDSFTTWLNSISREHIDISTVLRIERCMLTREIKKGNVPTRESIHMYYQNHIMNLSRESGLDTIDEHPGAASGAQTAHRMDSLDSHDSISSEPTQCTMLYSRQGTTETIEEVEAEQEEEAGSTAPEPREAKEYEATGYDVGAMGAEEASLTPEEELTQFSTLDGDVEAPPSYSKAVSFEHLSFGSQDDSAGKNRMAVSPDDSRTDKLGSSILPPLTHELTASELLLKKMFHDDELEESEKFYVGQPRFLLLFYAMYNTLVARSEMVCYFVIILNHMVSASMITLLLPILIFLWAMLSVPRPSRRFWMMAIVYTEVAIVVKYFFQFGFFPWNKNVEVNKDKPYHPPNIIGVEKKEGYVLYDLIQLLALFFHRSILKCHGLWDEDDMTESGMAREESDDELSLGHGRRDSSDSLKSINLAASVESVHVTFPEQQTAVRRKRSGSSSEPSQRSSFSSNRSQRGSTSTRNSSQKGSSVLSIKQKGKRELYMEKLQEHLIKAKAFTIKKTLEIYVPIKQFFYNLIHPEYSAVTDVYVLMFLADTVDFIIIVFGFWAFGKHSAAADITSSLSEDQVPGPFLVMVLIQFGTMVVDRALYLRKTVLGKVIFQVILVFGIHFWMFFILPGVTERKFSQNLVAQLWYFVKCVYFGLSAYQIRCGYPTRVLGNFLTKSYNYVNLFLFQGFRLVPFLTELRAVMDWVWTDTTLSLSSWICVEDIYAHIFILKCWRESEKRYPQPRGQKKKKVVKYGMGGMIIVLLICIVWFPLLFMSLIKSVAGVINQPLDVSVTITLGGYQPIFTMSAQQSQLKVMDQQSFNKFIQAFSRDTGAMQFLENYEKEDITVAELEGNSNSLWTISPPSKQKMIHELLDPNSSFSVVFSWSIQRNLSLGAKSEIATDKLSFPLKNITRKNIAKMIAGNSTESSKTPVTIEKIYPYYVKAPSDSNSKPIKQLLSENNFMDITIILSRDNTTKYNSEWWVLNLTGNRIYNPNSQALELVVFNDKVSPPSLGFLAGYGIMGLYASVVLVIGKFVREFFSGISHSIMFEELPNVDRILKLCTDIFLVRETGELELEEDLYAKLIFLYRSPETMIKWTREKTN
UniProt Q9BSJ6: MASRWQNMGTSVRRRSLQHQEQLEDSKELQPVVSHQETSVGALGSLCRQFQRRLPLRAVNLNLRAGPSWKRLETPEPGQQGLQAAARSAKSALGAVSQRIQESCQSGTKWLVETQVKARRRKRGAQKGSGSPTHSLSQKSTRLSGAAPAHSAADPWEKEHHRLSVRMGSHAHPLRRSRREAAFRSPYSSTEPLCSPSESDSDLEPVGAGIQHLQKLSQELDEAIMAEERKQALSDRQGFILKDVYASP
UniProt P08567: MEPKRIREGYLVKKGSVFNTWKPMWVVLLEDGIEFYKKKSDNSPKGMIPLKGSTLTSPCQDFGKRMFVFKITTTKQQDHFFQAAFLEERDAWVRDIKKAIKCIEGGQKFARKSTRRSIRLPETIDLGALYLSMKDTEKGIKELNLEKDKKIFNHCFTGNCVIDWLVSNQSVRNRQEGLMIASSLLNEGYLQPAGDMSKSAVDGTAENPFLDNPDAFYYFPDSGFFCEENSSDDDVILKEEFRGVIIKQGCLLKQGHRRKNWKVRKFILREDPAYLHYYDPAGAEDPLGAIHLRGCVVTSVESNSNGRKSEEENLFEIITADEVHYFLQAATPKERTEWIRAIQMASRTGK
PIGBOS1, A0A0B4J2F0, UniProt A0A0B4J2F0, whole entry, looked up: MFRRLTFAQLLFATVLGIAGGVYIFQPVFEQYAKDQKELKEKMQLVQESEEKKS

sotrastaurin = compound: CN1CCN(c2nc(C3=C(c4c[nH]c5ccccc45)C(=O)NC3=O)c3ccccc3n2)CC1 [sotrastaurin]
Outline: as §1

Tubastatin A = compound: CN1CCc2c(c3ccccc3n2Cc2ccc(C(=O)NO)cc2)C1 [Tubastatin A]
Outline: as §1

[2] = compound: CNC(=O)C1=CC=CC=C1NC2=NC(=NC=C2Cl)NC3=C(C=C(C=C3)N4CCOCC4)OC
Outline: as §1

alisertib = compound: COc1cc(Nc2ncc3c(n2)-c2ccc(Cl)cc2C(c2c(F)cccc2OC)=NC3)ccc1C(=O)O [alisertib]
Outline: as §1

gefitinib = compound: COc1cc2ncnc(Nc3ccc(F)c(Cl)c3)c2cc1OCCCN1CCOCC1 [gefitinib]
Outline: as §1

[3] = compound: CC[C@@H]1C(=O)N(C)c2cnc(Nc3ccc(C(=O)NC4CCN(C)CC4)cc3OC)nc2N1C1CCCC1
Outline: as §1

[4] = compound: CCn1cc(-c2ccnc3[nH]c(-c4cccc(CN(C)C)c4)cc23)c(-c2ccc(NC(=O)N(C)C)cc2)n1
Outline: as §1

[5] = compound: CN1CCC(CNc2ccc3ncc(-c4cccc(OC(F)(F)F)c4)n3n2)CC1
Outline: as §1

saracatinib = compound: CN1CCN(CCOc2cc(OC3CCOCC3)c3c(Nc4c(Cl)ccc5c4OCO5)ncnc3c2)CC1 [saracatinib]
Outline: as §1

alvocidib = compound: CN1CC[C@H](c2c(O)cc(O)c3c(=O)cc(-c4ccccc4Cl)oc23)[C@H](O)C1 [alvocidib]
Outline: as §1

[6] = compound: CNc1nc(-c2ccc3c(N)n[nH]c3c2)cc(N2C[C@@H](C(=O)NC3CCCCC3)CC[C@H]2C)n1
Outline: as §1

encorafenib = compound: COC(=O)N[C@@H](C)CNc1nccc(-c2cn(C(C)C)nc2-c2cc(Cl)cc(NS(C)(=O)=O)c2F)n1 [encorafenib]
Outline: as §1

[7] = compound: COC(=O)[C@H](CCSC)NC(=O)C1=C(C=C(C=C1)NC[C@H](CS)N)C2=CC=CC=C2
Outline: as §1

barasertib = compound: CCN(CCCOc1ccc2c(Nc3cc(CC(=O)Nc4cccc(F)c4)[nH]n3)ncnc2c1)CCOP(=O)(O)O [barasertib]
Outline: as §1

[8] = compound: CCCS(=O)(=O)Nc1ccc(F)c(C(=O)c2c[nH]c3ncc(Cl)cc23)c1F
Outline: as §1

volasertib = compound: CC[C@@H]1C(=O)N(C)c2cnc(Nc3ccc(C(=O)N[C@H]4CC[C@H](N5CCN(CC6CC6)CC5)CC4)cc3OC)nc2N1C(C)C [volasertib]
Outline: as §1

[9] = compound: COc1cc2nc(-c3cc(F)ccc3O)nc(N[C@@H]3CNC[C@H]3C(C)(C)O)c2cc1OC
Outline: as §1

Measured: log2 fold change

PHF19 (UniProt Q5T6S3)
inactive: [1] 0.057 | sotrastaurin 0.054 | Tubastatin A 0.027 | [2] 0.063 | alisertib 0.003 | gefitinib 0.078

PIK3R3 (UniProt Q92569)
inactive: [1] 0.111 | Tubastatin A 0.002 | alisertib -0.013 | gefitinib 0.121

PHF2 (UniProt O75151)
inactive: [1] 0.147 | Tubastatin A -0.071

PLAUR (UniProt Q03405)
inactive: [3] 0.137 | [4] -0.041 | [5] 0.111 | saracatinib -0.049 | alvocidib -0.01 | [2] 0.249 | [6] -0.046 | encorafenib 0.015 | [7] -0.057

PLEKHG2 (UniProt Q9H7P9)
inactive: [3] 0.245 | [4] 0.059 | [5] -0.067 | saracatinib -0.152 | alvocidib -0.095 | [2] 0.084 | [6] 0.141 | encorafenib -0.027 | [7] -0.13

PHF12 (UniProt Q96QT6)
inactive: [1] -0.048 | Tubastatin A -0.26

2 consecutive records already listed, for reference:
PHF2 (UniProt O75151)
inactive: [1] 0.147 | Tubastatin A -0.071

PLAUR (UniProt Q03405)
inactive: [3] 0.137 | [4] -0.041 | [5] 0.111 | saracatinib -0.049 | alvocidib -0.01 | [2] 0.249 | [6] -0.046 | encorafenib 0.015 | [7] -0.057

Later entries.

PIM2 (UniProt Q9P1W9)
inactive: [1] 0.078 | [4] 0.154 | [5] 0.296 | saracatinib -0.086 | alvocidib 0.076 | Tubastatin A -0.07 | [6] 0 | alisertib -0.083 | gefitinib -0.201

PHF20 (UniProt Q9BVI0)
inactive: [1] 0.075 | sotrastaurin 0.015 | Tubastatin A -0.133

PHOSPHO2 (UniProt C9JD35)
inactive: [3] -0.432 | sotrastaurin -0.027 | encorafenib 0.018 | [7] -0.36

PLD6 (UniProt Q8N2A8)
inactive: saracatinib 0.045 | [6] -0.1

PITPNM1 (UniProt O00562)
inactive: barasertib -0.038 | [1] -0.016 | sotrastaurin 0.039 | Tubastatin A -0.063 | alisertib -0.028 | gefitinib 0.014

PLEKHA8 (UniProt Q96JA3)
inactive: [3] 0 | [1] -0.124 | saracatinib 0.002 | Tubastatin A 0.234 | [6] -0.096 | encorafenib 0.355 | [7] -0.066 | alisertib -0.089 | gefitinib 0.064

PIWIL4 (UniProt Q7Z3Z4)
inactive: alisertib -0.118 | gefitinib -0.054

PLEKHA2 (UniProt Q9HB19)
inactive: barasertib -0.004 | [1] 0.052 | [4] -0.212 | [5] -0.06 | saracatinib 0.098 | sotrastaurin -0.029 | alvocidib -0.006 | Tubastatin A -0.089 | [2] 0.011 | [6] 0.086 | alisertib 0.053 | gefitinib -0.044

PICALM (UniProt H0YCY1)
inactive: [2] -0.018

PLCB4 isoform 4 (UniProt Q15147)
inactive: [8] 0.081 | [3] 0.125 | volasertib -0.096 | [1] 0.079 | Tubastatin A 0.402 | [2] 0.206 | encorafenib 0.015 | [7] -0.061 | [9] -0.077

PIP5K1B isoform 2 (UniProt O14986)
inactive: barasertib -0.155 | sotrastaurin 0.053

PKIB isoform 2 (UniProt Q9C010)
inactive: [8] -0.074 | volasertib 0.018 | [1] -0.076 | [4] -0.112 | [5] 0.1 | alvocidib 0.103 | Tubastatin A 0.086 | [9] -0.067

PIGT, A0A1W2PP13
inactive: [8] -0.202 | volasertib 0.245 | alisertib -0.112 | [9] 0.065 | gefitinib 0

PIAS1 isoform 2 (UniProt O75925)
inactive: [4] -0.481 | [5] -0.069 | saracatinib 0.014 | sotrastaurin -0.046 | alvocidib 0.007 | [2] 0.116 | [6] -0.051 | alisertib 0.094 | gefitinib 0.242

PIEZO2 isoform 4 (UniProt Q9H5I5)
inactive: [8] 0.08 | [3] 0.08 | volasertib 0.039 | sotrastaurin 0.003 | [2] 0.001 | encorafenib -0.072 | [7] 0.037 | alisertib 0.014 | [9] -0.095 | gefitinib -0.072

PGM1 isoform 2 (UniProt P36871)
inactive: [3] -0.206 | saracatinib 0.082 | [2] -0.159 | [6] 0.055 | encorafenib -0.172 | [7] 0.196

PIMREG (UniProt Q9BSJ6)
inactive: barasertib 0.172 | [1] 0.263 | [4] 0.105 | [5] 0.03 | sotrastaurin -0.068 | alvocidib -0.205 | Tubastatin A -0.135 | [2] 0.057

PHETA1 isoform 4 (UniProt Q8N4B1)
inactive: [1] -0.055 | [4] 0.22 | [5] -0.013 | alvocidib -0.073 | Tubastatin A -0.007

PLEK (UniProt P08567)
inactive: [3] -0.131 | [1] -0.11 | sotrastaurin 0.223 | Tubastatin A 0.012 | [2] -0.025 | encorafenib -0.255 | [7] 0.106

PIDD1 (UniProt Q9HB75)
inactive: [1] 0.063 | saracatinib 0.085 | Tubastatin A -0.098 | [6] -0.107

PKP4 (UniProt Q99569)
inactive: [3] 0.025 | [1] 0.028 | [4] 0.097 | [5] -0.005 | saracatinib -0.08 | alvocidib 0.095 | Tubastatin A -0.277 | [6] 0.042 | encorafenib -0.125 | [7] 0.114

PIGBOS1, A0A0B4J2F0
inactive: [4] 0.125 | [5] -0.2 | sotrastaurin -0.114 | alvocidib 0.223

PIK3AP1 (UniProt Q6ZUJ8)
inactive: barasertib 0.017 | [3] 0.095 | [1] -0.126 | saracatinib -0.173 | sotrastaurin -0.093 | Tubastatin A 0.123 | [6] 0.223 | encorafenib -0.176 | [7] 0.156

PLEKHA3 (UniProt Q9HB20)
inactive: [1] 0.066 | [4] -0.06 | [5] -0.019 | saracatinib -0.01 | sotrastaurin 0.015 | alvocidib 0.017 | Tubastatin A -0.079 | [6] 0.019 | alisertib -0.046 | gefitinib 0.269

Source: the supplement of paper PMC10849652
